# No constants are given. Whether binding was seen depends on the method and setting. Binding seen in cells or lysates may run through a third protein. These calls come from enrichment with a bait or labelling near it, and not all partners need be listed. Sequences can lack the tags named with a protein.
# T1: FLAG-HA-CINP, stably expressed in HeLa S3 (human) (UniProt Q9BW66)
# T1 sequence: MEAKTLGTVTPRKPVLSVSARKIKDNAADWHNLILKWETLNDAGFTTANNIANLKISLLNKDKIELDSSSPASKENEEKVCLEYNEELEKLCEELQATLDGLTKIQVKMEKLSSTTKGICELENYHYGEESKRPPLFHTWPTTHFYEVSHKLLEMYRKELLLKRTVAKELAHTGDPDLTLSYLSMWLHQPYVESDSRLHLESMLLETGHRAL
# T2: FLAG-HA-POLD3, stably expressed in HeLa S3 (human) (UniProt Q15054)
# T2 sequence: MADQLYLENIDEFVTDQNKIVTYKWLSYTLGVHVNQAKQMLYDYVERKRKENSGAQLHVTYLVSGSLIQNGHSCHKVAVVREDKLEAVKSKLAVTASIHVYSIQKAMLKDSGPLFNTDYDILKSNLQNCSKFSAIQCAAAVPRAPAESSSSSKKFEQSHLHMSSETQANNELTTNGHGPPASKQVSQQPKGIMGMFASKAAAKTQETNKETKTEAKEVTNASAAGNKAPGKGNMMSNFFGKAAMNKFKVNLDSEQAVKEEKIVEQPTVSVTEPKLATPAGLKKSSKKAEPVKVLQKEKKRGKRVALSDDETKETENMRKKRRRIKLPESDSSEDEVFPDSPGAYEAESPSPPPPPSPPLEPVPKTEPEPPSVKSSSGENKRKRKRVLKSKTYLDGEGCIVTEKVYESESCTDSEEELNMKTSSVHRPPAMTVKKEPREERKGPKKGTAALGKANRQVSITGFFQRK
# T3: FLAG-HA-C1orf109, stably expressed in HeLa S3 (human) (UniProt Q9NX04)
# T3 sequence: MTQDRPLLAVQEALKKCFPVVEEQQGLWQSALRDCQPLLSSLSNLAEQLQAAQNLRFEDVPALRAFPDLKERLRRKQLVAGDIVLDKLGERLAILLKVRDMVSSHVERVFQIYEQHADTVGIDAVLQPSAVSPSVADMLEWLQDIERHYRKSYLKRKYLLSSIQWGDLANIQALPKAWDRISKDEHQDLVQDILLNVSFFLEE
# Key:
# Experiment in all cases: affinity purification with mass spectrometry; FLAG-HA tandem purification from high-salt (400 mM KCl) nuclear extracts of HeLa S3 stably expressing the FH-tagged bait, dialysed to KETNG150; eluate analysed by mass spectrometry; empty vector as control
# [1] = target: T1, FLAG-HA-CINP, stably expressed in HeLa S3 (human)
# [2] = target: T2, FLAG-HA-POLD3, stably expressed in HeLa S3 (human)
# [3] = target: T3, FLAG-HA-C1orf109, stably expressed in HeLa S3 (human)
binding [1],binding [2],binding [3],Binder
binds,binds,binds,"SPATA5 (HeLa S3 nuclear extract) (enzyme, UniProt Q8NB90 1-893) MSSKKNRKRLNQSAENGSSLPSAASSCAEARAPSAGSDFAATSGTLTVTNLLEKVDDKIPKTFQNSLIHLGLNTMKSANICIGRPVLLTSLNGKQEVYTAWPMAGFPGGKVGLSEMAQKNVGVRPGDAIQVQPLVGAVLQAEEMDVALSDKDMEINEEELTGCILRKLDGKIVLPGNFLYCTFYGRPYKLQVLRVKGADGMILGGPQSDSDTDAQRMAFEQSSMETSSLELSLQLSQLDLEDTQIPTSRSTPYKPIDDRITNKASDVLLDVTQSPGDGSGLMLEEVTGLKCNFESAREGNEQLTEEERLLKFSIGAKCNTDTFYFISSTTRVNFTEIDKNSKEQDNQFKVTYDMIGGLSSQLKAIREIIELPLKQPELFKSYGIPAPRGVLLYGPPGTGKTMIARAVANEVGAYVSVINGPEIISKFYGETEAKLRQIFAEATLRHPSIIFIDELDALCPKREGAQNEVEKRVVASLLTLMDGIGSEVSEGQVLVLGATNRPHALDAALRRPGRFDKEIEIGVPNAQDRLDILQKLLRRVPHLLTEAELLQLANSAHGYVGADLKVLCNEAGLCALRRILKKQPNLPDVKVAGLVKITLKDFLQAMNDIRPSAMREIAIDVPNVSWSDIGGLESIKLKLEQAVEWPLKHPESFIRMGIQPPKGVLLYGPPGCSKTMIAKALANESGLNFLAIKGPELMNKYVGESERAVRETFRKARAVAPSIIFFDELDALAVERGSSLGAGNVADRVLAQLLTEMDGIEQLKDVTILAATNRPDRIDKALMRPGRIDRIIYVPLPDAATRREIFKLQFHSMPVSNEVDLDELILQTDAYSGAEIVAVCREAALLALEEDIQANLIMKRHFTQALSTVTPRIPESLRRFYEDYQEKSGLHTL"
binds,binds,binds,"SPATA5L1 (HeLa S3 nuclear extract) (enzyme, UniProt Q9BVQ7 1-753) MAPDSDPFPEGPLLKLLPLDARDRGTQRCRLGPAALHALGARLGSAVKISLPDGGSCLCTAWPRRDGADGFVQLDPLCASPGAAVGASRSRRSLSLNRLLLVPCPPLRRVAVWPVLRERAGAPGARNTAAVLEAAQELLRNRPISLGHVVVAPPGAPGLVAALHIVGGTPSPDPAGLVTPRTRVSLGGEPPSEAQPQPEVPLGGLSEAADSLRELLRLPLRYPRALTALGLAVPRGVLLAGPPGVGKTQLVRAVAREAGAELLAVSAPALQGSRPGETEENVRRVFQRARELASRGPSLLFLDEMDALCPQRGSRAPESRVVAQVLTLLDGASGDREVVVVGATNRPDALDPALRRPGRFDREVVIGTPTLKQRKEILQVITSKMPISSHVDLGLLAEMTVGYVGADLTALCREAAMHALLHSEKNQDNPVIDEIDFLEAFKNIQPSSFRSVIGLMDIKPVDWEEIGGLEDVKLKLKQSIEWPLKFPWEFVRMGLTQPKGVLLYGPPGCAKTTLVRALATSCHCSFVSVSGADLFSPFVGDSEKVLSQIFRQARASTPAILFLDEIDSILGARSASKTGCDVQERVLSVLLNELDGVGLKTIERRGSKSSQQEFQEVFNRSVMIIAATNRPDVLDTALLRPGRLDKIIYIPPPDHKGRLSILKVCTKTMPIGPDVSLENLAAETCFFSGADLRNLCTEAALLALQENGLDATTVKQEHFLKSLKTVKPSLSCKDLALYENLFKKEGFSNVEGI"

# Source: paper PMC11055677
